Read-outs that look alike come from different tables or passages of the source. No constants are given. Whether binding was seen depends on the method and setting. Binding seen in cells or lysates may run through a third protein. Some entries that bind do so weakly or less than the wild type. Sequences can lack the tags named with a protein.
B1: mouse Frizzled3 (Frizzled3-HA) (receptor, UniProt Q61086 23-666)
chain: HSLFSCEPITLRMCQDLPYNTTFMPNLLNHYDQQTAALAMEPFHPMVNLDCSRDFRPFLCALYAPICMEYGRVTLPCRRLCQRAYSECSKLMEMFGVPWPEDMECSRFPDCDEPYPRLVDLNLVGDPTEGAPVAVQRDYGFWCPRELKIDPDLGYSFLHVRDCSPPCPNMYFRREELSFARYFIGLISIICLSATLFTFLTFLIDVTRFRYPERPIIFYAVCYMMVSLIFFIGFLLEDRVACNASSPAQYKASTVTQGSHNKACTMLFMVLYFFTMAGSVWWVILTITWFLAAVPKWGSEAIEKKALLFHASAWGIPGTLTIILLAMNKIEGDNISGVCFVGLYDVDALRYFVLAPLCLYVVVGVSLLLAGIISLNRVRIEIPLEKENQDKLVKFMIRIGVFSILYLVPLLVVIGCYFYEQAYRGIWETTWIQERCREYHIPCPYQVTQMSRPDLILFLMKYLMALIVGIPSIFWVGSKKTCFEWASFFHGRRKKEIVNESRQVLQEPDFAQSLLRDPNTPIIRKSRGTSTQGTSTHASSTQLAMVDDQRSKAGSVHSKVSSYHGSLHRSRDGRYTPCSYRGMEERLPHGSMSRLTDHSRHSSSHRLNEQSRHSSIRDLSNNPMTHITHGTSMNRVIEEDGTSA
B2: Vangl2 (expression construct of the co-IP experiments) (protein, UniProt Q91ZD4 1-521)
chain: MDTESQYSGYSYKSGHSRSSRKHRDRRDRHRSKSRDGSRGDKSVTIQAPGEPLLDNESTRGDERDDNWGETTTVVTGTSEHSISHDDLTRIAKDMEDSVPLDCSRHLGVAAGAILALLSFLTPLAFLLLPPLLWREELEPCGTACEGLFISVAFKLLILLLGSWALFFRRPKASLPRVFVLRALLMVLVFLLVISYWLFYGVRILDARERSYQGVVQFAVSLVDALLFVHYLAVVLLELRQLQPQFTLKVVRSTDGASRFYNVGHLSIQRVAVWILEKYYHDFPVYNPALLNLPKSVLAKKVSGFKVYSLGEENSTNNSTGQSRAVIAAAARRRDNSHNEYYYEEAEHERRVRKRRARLVVAVEEAFTHIKRLQEEEQKNPREVMDPREAAQAIFASMARAMQKYLRTTKQQPYHTMESILQHLEFCITHDMTPKAFLERYLAAGPTIQYHKERWLAKQWTLVSEEPVTNGLKDGIVFLLKRQDFSLVVSTKKVPFFKLSEEFVDPKSHKFVMRLQSETSV

Protein sequences, listed by entry. Tags and fused reporters are not part of them. Residues count along the entry.
UniProt Q91ZI0, residues 32-3301: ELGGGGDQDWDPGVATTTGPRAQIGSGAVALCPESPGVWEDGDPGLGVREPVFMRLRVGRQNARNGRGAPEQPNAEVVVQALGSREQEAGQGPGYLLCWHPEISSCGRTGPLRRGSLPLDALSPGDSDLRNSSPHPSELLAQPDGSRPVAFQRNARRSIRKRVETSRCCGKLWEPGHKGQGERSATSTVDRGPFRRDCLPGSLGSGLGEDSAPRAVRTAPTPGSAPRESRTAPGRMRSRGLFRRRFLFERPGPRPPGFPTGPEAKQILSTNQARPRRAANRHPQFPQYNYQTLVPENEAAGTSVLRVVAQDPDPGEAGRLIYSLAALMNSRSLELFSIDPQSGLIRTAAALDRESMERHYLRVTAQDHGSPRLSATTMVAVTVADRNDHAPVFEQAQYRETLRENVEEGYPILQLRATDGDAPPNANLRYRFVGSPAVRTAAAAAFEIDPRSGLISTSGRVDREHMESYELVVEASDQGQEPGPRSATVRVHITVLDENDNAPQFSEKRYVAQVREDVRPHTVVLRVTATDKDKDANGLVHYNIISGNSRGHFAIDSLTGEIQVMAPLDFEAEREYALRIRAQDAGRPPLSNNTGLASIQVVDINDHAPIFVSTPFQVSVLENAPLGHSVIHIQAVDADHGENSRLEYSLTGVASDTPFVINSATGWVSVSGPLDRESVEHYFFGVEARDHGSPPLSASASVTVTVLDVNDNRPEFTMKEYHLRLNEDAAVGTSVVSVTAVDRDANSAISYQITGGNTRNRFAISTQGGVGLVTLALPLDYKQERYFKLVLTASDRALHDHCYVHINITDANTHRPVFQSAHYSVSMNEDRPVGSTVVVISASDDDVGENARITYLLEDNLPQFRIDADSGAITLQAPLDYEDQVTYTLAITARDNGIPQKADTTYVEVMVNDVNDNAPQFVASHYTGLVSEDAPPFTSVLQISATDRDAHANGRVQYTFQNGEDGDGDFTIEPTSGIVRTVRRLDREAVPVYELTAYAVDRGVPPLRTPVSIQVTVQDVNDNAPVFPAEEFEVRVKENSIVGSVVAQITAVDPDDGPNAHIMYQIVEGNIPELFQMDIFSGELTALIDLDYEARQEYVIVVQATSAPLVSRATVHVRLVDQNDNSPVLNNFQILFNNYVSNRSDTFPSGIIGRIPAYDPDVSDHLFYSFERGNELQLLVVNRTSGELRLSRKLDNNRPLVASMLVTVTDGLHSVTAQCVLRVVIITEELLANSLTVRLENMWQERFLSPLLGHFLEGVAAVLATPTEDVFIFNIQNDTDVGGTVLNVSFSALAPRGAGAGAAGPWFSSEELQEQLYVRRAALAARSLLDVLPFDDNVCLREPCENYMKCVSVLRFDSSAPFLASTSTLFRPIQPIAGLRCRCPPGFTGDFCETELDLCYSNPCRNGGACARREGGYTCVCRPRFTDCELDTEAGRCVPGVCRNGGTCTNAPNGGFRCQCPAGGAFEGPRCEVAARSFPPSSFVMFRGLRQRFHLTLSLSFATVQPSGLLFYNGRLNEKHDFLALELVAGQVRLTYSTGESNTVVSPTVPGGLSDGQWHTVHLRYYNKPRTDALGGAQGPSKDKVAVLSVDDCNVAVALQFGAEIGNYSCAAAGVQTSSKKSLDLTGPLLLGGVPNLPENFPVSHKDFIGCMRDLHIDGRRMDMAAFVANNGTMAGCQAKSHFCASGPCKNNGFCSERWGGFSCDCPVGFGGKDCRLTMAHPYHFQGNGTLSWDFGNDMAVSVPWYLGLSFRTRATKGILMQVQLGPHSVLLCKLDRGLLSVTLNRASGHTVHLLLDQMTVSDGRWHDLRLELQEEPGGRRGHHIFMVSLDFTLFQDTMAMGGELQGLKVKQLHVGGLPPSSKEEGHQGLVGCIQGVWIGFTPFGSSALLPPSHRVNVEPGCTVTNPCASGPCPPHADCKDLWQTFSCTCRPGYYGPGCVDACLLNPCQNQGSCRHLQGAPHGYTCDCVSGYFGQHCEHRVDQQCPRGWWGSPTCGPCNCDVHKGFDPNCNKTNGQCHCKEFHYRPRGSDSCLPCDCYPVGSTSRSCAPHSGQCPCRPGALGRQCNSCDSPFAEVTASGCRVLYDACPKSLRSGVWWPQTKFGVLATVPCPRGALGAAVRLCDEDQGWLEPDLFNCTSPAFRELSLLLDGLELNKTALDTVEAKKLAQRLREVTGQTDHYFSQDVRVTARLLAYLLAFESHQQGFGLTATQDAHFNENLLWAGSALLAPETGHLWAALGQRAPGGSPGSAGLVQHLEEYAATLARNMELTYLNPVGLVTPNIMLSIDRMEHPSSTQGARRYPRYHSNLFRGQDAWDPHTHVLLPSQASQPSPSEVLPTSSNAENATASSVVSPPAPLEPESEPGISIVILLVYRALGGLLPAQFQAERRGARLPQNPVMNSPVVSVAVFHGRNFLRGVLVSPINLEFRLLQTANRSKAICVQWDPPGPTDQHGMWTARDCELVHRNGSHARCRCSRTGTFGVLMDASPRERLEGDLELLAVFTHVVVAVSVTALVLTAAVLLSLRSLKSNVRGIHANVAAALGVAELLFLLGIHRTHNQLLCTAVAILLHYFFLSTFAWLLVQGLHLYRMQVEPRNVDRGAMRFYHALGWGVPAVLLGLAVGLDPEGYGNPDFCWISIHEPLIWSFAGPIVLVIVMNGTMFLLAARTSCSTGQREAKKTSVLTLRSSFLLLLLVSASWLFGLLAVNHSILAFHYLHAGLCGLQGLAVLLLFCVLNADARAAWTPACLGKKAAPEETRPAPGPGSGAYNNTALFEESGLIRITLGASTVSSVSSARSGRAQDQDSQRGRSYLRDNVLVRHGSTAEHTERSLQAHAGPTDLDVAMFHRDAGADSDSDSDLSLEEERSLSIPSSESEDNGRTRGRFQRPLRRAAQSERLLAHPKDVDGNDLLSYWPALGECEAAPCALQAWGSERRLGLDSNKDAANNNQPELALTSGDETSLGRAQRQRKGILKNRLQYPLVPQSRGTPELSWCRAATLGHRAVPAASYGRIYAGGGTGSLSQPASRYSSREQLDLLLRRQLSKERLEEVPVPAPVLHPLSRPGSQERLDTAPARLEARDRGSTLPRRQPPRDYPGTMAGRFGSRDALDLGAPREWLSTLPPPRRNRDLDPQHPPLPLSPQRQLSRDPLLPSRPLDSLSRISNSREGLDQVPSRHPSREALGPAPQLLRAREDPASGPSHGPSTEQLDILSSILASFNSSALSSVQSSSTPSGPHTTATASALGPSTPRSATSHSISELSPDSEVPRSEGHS

Columns and labels:
Test in all cases: co-IP
[1] = target: T1, mouse Frizzled3 (Frizzled3-HA) (mouse) (UniProt Q61086)
T1 sequence: B1 chain

[2] = target: T1, mouse Frizzled3 (Frizzled3-HA) (mouse); remark: listed apart in the source
[3] = target: mouse Celsr3 (Celsr3-Flag) (mouse) (UniProt Q91ZI0)

Row | Molecule | binding [1] | binding [2] | binding [3]
1 | mouse Celsr3 (Celsr3-Flag) (from UniProt Q91ZI0 32-3301) (receptor) | binds | binds | –
2 | B1 | – | – | binds
3 | B2 | – | – | binds
